Data as given in article PMC4658663.

The chains behind the UniProt entries cited, without tags or fusion partners. Where a name states a change or a piece, a line headed by the entry shows the natural chain unless it says otherwise.
UniProt P25100: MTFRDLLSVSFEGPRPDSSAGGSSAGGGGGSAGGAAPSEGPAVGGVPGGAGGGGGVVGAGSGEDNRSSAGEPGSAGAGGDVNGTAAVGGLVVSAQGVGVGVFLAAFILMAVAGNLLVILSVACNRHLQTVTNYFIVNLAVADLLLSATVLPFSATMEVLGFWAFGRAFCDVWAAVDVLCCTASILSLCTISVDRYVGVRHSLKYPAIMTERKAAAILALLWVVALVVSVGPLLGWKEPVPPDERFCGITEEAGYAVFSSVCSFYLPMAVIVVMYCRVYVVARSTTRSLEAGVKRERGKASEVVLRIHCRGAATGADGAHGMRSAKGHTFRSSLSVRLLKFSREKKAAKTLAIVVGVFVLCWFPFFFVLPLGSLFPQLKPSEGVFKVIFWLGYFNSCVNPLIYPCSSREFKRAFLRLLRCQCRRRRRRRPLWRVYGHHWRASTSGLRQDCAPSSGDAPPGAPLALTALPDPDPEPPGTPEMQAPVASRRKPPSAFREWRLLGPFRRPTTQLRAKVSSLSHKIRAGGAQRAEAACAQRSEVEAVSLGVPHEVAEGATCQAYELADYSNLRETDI
UniProt P41595: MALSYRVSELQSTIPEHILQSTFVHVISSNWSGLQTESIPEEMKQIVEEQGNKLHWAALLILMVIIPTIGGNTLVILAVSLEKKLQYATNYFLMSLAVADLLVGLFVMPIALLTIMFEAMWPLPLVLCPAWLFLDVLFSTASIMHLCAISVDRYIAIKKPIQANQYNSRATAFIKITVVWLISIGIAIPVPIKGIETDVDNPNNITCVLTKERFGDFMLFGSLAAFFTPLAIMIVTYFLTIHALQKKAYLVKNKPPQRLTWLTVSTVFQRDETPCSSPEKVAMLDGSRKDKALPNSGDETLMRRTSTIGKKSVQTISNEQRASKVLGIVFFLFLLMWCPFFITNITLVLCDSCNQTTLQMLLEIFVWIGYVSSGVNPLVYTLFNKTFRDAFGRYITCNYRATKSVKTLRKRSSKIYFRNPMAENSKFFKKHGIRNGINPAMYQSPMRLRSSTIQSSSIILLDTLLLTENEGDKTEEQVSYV
UniProt P31391: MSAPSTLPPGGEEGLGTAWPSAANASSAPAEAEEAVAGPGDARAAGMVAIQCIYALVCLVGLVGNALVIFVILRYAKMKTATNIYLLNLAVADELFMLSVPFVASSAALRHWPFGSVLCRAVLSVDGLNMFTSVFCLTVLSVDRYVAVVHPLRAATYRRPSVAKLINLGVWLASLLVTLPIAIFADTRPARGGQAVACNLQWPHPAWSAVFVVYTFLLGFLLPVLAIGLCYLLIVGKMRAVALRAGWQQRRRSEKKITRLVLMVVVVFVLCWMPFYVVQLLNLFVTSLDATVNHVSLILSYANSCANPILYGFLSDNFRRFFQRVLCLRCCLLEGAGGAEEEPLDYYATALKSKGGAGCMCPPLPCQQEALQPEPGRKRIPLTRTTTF
UniProt Q14160: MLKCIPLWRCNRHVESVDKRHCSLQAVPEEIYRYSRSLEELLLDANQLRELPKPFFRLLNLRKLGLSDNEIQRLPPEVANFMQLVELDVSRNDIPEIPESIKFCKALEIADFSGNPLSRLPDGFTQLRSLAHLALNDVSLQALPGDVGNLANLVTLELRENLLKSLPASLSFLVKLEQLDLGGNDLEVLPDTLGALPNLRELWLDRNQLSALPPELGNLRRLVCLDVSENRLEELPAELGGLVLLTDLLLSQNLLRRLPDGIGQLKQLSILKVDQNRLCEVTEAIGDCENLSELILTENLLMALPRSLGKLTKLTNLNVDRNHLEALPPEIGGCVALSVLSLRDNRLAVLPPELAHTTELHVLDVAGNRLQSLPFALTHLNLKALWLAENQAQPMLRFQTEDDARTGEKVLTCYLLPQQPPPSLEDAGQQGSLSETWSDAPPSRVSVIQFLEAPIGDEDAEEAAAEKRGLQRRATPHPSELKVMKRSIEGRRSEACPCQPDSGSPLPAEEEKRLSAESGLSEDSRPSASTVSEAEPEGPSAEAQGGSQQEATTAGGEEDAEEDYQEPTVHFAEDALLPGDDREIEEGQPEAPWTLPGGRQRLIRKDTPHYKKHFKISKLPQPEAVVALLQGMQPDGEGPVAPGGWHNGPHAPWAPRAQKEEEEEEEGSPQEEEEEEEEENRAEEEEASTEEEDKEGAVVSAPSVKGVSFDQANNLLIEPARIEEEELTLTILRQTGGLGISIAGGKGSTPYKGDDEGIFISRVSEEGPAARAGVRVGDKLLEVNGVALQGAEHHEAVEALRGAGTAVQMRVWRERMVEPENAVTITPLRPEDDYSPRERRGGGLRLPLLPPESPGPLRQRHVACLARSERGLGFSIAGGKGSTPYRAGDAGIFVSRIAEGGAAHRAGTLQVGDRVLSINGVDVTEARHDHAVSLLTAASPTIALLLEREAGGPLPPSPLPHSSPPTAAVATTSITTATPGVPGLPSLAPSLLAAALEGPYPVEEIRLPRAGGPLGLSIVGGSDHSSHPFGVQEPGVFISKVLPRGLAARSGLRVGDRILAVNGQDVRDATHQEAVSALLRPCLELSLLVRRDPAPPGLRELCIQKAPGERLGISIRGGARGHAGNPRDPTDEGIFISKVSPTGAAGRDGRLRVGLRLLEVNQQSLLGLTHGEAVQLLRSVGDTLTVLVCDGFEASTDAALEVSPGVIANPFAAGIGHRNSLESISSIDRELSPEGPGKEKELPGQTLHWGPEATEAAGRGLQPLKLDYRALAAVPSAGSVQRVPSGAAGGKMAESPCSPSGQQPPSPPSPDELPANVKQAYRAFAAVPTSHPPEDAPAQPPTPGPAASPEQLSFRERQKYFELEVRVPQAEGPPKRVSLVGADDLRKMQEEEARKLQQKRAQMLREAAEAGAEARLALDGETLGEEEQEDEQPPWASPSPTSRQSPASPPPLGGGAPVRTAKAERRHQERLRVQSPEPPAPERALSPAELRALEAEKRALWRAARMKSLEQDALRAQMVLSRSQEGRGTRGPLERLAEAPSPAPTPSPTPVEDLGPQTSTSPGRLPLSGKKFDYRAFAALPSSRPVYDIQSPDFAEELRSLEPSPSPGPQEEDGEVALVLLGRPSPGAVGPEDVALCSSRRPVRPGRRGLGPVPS
UniProt P46939: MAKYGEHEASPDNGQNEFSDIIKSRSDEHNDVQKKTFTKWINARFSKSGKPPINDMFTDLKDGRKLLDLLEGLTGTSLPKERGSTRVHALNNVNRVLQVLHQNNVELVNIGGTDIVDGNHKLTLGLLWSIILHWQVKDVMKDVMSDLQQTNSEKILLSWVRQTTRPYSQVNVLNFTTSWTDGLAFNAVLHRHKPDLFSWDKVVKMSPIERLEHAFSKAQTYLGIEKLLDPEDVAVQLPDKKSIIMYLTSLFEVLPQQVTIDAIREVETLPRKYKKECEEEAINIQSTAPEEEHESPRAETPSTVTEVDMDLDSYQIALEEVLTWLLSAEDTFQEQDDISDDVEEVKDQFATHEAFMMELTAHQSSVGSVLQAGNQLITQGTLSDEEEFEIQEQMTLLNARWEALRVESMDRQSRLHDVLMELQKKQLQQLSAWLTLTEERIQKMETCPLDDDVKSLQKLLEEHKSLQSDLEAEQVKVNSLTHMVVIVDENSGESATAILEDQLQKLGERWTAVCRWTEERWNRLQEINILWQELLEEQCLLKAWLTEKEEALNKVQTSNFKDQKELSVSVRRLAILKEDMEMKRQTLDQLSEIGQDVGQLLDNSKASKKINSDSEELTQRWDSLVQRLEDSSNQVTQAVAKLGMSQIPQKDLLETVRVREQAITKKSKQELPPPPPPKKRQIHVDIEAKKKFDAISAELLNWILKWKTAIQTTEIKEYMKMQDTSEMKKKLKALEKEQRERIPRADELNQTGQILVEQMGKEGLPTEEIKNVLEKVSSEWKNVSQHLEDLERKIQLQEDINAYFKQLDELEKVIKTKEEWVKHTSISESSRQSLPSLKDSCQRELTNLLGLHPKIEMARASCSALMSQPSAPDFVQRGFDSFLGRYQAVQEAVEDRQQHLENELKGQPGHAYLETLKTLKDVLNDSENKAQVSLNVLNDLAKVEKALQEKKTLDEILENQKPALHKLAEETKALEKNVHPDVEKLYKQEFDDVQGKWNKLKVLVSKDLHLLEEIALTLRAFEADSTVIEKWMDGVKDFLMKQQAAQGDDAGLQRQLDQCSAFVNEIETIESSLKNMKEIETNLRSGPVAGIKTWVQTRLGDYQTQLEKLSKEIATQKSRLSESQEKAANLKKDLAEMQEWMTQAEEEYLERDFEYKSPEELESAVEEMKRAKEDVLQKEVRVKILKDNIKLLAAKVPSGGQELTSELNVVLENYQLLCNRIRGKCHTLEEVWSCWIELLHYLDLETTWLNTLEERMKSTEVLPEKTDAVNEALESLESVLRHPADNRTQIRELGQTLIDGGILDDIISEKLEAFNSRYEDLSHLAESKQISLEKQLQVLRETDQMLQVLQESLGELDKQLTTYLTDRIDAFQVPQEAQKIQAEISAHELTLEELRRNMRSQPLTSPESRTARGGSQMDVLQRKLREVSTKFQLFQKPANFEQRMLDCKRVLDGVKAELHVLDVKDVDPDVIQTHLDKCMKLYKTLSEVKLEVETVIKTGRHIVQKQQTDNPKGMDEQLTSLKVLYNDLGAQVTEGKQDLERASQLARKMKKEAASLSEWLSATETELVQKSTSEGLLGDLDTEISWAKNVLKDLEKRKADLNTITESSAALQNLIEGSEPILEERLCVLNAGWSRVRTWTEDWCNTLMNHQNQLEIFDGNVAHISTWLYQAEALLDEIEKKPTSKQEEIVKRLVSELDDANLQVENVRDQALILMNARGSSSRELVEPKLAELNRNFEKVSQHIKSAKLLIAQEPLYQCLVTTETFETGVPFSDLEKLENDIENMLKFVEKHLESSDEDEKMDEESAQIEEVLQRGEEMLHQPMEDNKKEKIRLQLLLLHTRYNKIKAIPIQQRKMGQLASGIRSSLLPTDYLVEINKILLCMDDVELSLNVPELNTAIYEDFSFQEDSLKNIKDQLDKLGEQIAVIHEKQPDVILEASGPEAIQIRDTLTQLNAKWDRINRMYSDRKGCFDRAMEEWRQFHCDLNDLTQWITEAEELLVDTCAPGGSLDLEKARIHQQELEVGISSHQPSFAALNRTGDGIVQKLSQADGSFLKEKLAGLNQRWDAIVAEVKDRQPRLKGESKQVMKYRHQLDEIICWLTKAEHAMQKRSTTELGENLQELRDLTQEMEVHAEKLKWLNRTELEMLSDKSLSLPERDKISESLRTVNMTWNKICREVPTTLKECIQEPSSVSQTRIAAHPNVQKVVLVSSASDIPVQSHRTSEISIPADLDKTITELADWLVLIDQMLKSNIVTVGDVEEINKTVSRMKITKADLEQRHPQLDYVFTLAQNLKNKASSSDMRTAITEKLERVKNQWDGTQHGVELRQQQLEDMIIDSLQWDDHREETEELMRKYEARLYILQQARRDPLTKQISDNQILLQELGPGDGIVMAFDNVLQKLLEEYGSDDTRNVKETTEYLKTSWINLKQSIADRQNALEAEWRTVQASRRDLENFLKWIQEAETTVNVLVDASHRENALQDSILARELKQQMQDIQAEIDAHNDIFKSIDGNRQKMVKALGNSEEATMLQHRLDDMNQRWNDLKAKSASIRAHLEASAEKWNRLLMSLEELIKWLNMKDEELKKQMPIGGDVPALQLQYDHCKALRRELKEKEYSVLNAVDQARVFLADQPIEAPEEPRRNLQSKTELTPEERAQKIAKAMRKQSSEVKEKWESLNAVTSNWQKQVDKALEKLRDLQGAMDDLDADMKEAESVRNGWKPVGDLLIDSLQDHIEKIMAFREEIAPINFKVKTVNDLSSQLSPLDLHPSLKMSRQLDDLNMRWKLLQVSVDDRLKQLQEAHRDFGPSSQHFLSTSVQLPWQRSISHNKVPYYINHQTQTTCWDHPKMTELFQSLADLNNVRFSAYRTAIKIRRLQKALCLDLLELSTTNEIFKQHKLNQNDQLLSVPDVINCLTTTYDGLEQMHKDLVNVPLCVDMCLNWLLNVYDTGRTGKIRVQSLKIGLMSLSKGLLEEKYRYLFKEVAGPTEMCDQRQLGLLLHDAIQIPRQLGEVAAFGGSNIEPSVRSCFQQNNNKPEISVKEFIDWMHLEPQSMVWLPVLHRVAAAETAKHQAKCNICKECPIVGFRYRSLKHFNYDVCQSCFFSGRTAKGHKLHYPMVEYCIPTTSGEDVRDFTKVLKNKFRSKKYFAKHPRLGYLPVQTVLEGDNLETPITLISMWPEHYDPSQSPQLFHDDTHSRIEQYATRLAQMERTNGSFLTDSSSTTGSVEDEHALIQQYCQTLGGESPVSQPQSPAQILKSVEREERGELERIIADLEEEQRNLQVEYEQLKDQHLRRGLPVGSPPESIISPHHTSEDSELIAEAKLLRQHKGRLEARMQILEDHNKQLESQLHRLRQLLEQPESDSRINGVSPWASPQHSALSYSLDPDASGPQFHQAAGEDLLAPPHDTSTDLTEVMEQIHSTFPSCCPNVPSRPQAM

T1: C3AR1 (C3a anaphylatoxin chemotactic receptor), TAP-tagged (human) (UniProt Q16581)
T1 sequence: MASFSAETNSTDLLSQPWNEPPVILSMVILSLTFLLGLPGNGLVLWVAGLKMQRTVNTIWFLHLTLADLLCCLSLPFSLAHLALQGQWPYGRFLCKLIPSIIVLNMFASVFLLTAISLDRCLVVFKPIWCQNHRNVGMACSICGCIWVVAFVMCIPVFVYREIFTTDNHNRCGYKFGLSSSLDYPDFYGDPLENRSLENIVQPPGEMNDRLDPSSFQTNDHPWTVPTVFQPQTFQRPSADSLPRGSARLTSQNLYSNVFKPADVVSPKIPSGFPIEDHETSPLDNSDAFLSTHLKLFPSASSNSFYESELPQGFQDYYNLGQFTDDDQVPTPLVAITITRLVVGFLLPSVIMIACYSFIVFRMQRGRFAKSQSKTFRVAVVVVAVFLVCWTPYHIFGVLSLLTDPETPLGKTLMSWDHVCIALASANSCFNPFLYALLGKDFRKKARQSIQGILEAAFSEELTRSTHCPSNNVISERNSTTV


Columns and labels:
TAP–ADRA1D (human) [1] = target: TAP–ADRA1D (human) (UniProt P25100); assay: affinity purification with mass spectrometry; TAP/MS; TAP–ADRA1D transfected in A375 cells
TAP–ADRA1D (human) [2] = target: TAP–ADRA1D (human) (UniProt P25100); assay: affinity purification with mass spectrometry; TAP/MS; TAP–ADRA1D transfected in A549 cells
[3] = target: HTR2B (5-hydroxytryptamine type 2B receptor), TAP-tagged (human) (UniProt P41595); assay: affinity purification with mass spectrometry; TAP/MS; TAP-tagged bait transfected alone (or with empty vector) in HEK293T cells; TEV cleavage omitted; eluates on Velos-Pro Orbitrap Elite; protein FDR 2.5%
[4] = target: HRH3 (histamine type 3 receptor), TAP-tagged (human) (UniProt Q9Y5N1); assay: as above
[5] = target: CXCR1 (chemokine receptor), TAP-tagged (human) (UniProt P25024); assay: as above
[6] = target: T1, C3AR1 (C3a anaphylatoxin chemotactic receptor), TAP-tagged (human); assay: as above
[7] = target: MCHR2 (melanin-concentrating hormone type 2 receptor), TAP-tagged (human) (UniProt Q969V1); assay: as above
[8] = target: CXCR5 (chemokine receptor), TAP-tagged (human) (UniProt P32302); assay: as above
[9] = target: SSTR5 (somatostatin receptor 5), TAP-tagged (human) (UniProt P35346); assay: as above
[10] = target: SSTR4 (somatostatin receptor 4), TAP-tagged (human) (UniProt P31391); assay: as above
TAP–ADRA1D (human) [11] = target: TAP–ADRA1D (human) (UniProt P25100); assay: affinity purification with mass spectrometry; TAP/MS; TAP–ADRA1D transfected in MCF-7 cells
TAP–ADRA1D (human) [12] = target: TAP–ADRA1D (human) (UniProt P25100); assay: affinity purification with mass spectrometry; TAP/MS; TAP–ADRA1D transfected in HeLa cells
TAP–ADRA1D (human) [13] = target: TAP–ADRA1D (human) (UniProt P25100); assay: affinity purification with mass spectrometry; TAP/MS; TAP–ADRA1D transfected in SW480 cells
TAP–ADRA1D-ΔPDZ (human) = TAP–ADRA1D-ΔPDZ (human) (UniProt P25100); assay: affinity purification with mass spectrometry; TAP/MS; TAP–ADRA1D-ΔPDZ co-transfected with Myc–ADRA1D in HEK293T cells

binding (TAP–ADRA1D (human) [1]) | binding (TAP–ADRA1D (human) [2]) | binding [3] | binding [4] | binding [5] | binding [7] | binding [8] | binding [9] | binding [10] | binding (TAP–ADRA1D (human) [11]) | binding (TAP–ADRA1D (human) [12]) | binding (TAP–ADRA1D (human) [13]) | binding (TAP–ADRA1D-ΔPDZ (human)) | Molecule | binding [6]
binds | binds | no binding | no binding | no binding | no binding | no binding | no binding | no binding | binds | – | – | – | dystrophin (DMD) (from UniProt P11532 1-3685) | no binding
binds | binds | no binding | no binding | no binding | no binding | no binding | no binding | no binding | binds | binds | binds | – | SNTB2 (from UniProt Q13425 1-540) | no binding
binds | binds | no binding | no binding | no binding | no binding | no binding | no binding | no binding | binds | binds | binds | no binding | Scribble (SCRIB), endogenous (from UniProt Q14160 1-1655) | –
binds | binds | no binding | no binding | no binding | no binding | no binding | no binding | no binding | binds | binds | binds | – | utrophin (UTRN) (from UniProt P46939 1-3433) | no binding
– | – | no binding | no binding | no binding | no binding | no binding | no binding | no binding | – | binds | binds | – | α-catulin (CTNNAL1) (protein, UniProt Q9UBT7 1-734) MAASPGPAGVGGAGAVYGSGSSGFALDSGLEIKTRSVEQTLLPLVSQITTLINHKDNTKKSDKTLQAIQRVGQAVNLAVGRFVKVGEAIANENWDLKEEINIACIEAKQAGETIAALTDITNLNHLESDGQITIFTDKTGVIKAARLLLSSVTKVLLLADRVVIKQIITSRNKVLATMERLEKVNSFQEFVQIFSQFGNEMVEFAHLSGDRQNDLKDEKKKAKMAAARAVLEKCTMMLLTASKTCLRHPNCESAHKNKEGVFDRMKVALDKVIEIVTDCKPNGETDISSISIFTGIKEFKMNIEALRENLYFQSKENLSVTLEVILERMEDFTDSAYTSHEHRERILELSTQARMELQQLISVWIQAQSKKTKSIAEELELSILKISHSLNELKKELHSTATQLAADLLKYHADHVVLKALKLTGVEGNLEALAEYACKLSEQKEQLVETCRLLRHISGTEPLEITCIHAEETFQVTGQQIISAAETLTLHPSSKIAKENLDVFCEAWESQISDMSTLLREINDVFEGRRGEKYGYLSLPKPMKNNANLKSLKPDKPDSEEQAKIAKLGLKLGLLTSDADCEIEKWEDQENEIVQYGRNMSSMAYSLYLFTRGEGPLKTSQDLIHQLEVFAAEGLKLTSSVQAFSKQLKDDDKLMLLLEINKLIPLCHQLQTVTKTSLQNKVFLKVDKCITKTRSMMALLVQLLSLCYKLLKKLQMENNGWVSVTNKDTMDSKT | no binding
binds | – | no binding | no binding | no binding | no binding | no binding | no binding | no binding | binds | binds | binds | – | dystrobrevin-A (DTNA) (protein, UniProt Q9Y4J8 1-743) MIEDSGKRGNTMAERRQLFAEMRAQDLDRIRLSTYRTACKLRFVQKKCNLHLVDIWNVIEALRENALNNLDPNTELNVSRLEAVLSTIFYQLNKRMPTTHQIHVEQSISLLLNFLLAAFDPEGHGKISVFAVKMALATLCGGKIMDKLRYIFSMISDSSGVMVYGRYDQFLREVLKLPTAVFEGPSFGYTEQSARSCFSQQKKVTLNGFLDTLMSDPPPQCLVWLPLLHRLANVENVFHPVECSYCHSESMMGFRYRCQQCHNYQLCQDCFWRGHAGGSHSNQHQMKEYTSWKSPAKKLTNALSKSLSCASSREPLHPMFPDQPEKPLNLAHIVDTWPPRPVTSMNDTLFSHSVPSSGSPFITRSSPPKDSEVEQNKLLARAAPAFLKGKGIQYSLNVADRLADEHVLIGLYVNMLRNNPSCMLESSNRLDEEHRLIARYAARLAAESSSSQPPQQRSAPDISFTIDANKQQRQLIAELENKNREILQEIQRLRLEHEQASQPTPEKAQQNPTLLAELRLLRQRKDELEQRMSALQESRRELMVQLEGLMKLLKTQGAGSPRSSPSHTISRPIPMPIRSASACSTPTHTPQDSLTGVGGDVQEAFAQSSRRNLRNDLLVAADSITNTMSSLVKELNSEVGSETESNVDSEFARTQFEDLVPSPTSEKAFLAQIHARKPGYIHSGATTSTMRGDMVTEDADPYVQPEDENYENDSVRQLENELQMEEYLKQKLQDEAYQVSLQG | no binding
– | – | no binding | no binding | no binding | no binding | no binding | no binding | no binding | – | binds | binds | – | SNTB1 (protein, UniProt Q13884 1-538) MAVAAAAAAAGPAGAGGGRAQRSGLLEVLVRDRWHKVLVNLSEDALVLSSEEGAAAYNGIGTATNGSFCRGAGAGHPGAGGAQPPDSPAGVRTAFTDLPEQVPESISNQKRGVKVLKQELGGLGISIKGGKENKMPILISKIFKGLAADQTQALYVGDAILSVNGADLRDATHDEAVQALKRAGKEVLLEVKYMREATPYVKKGSPVSEIGWETPPPESPRLGGSTSDPPSSQSFSFHRDRKSIPLKMCYVTRSMALADPENRQLEIHSPDAKHTVILRSKDSATAQAWFSAIHSNVNDLLTRVIAEVREQLGKTGIAGSREIRHLGWLAEKVPGESKKQWKPALVVLTEKDLLIYDSMPRRKEAWFSPVHTYPLLATRLVHSGPGKGSPQAGVDLSFATRTGTRQGIETHLFRAETSRDLSHWTRSIVQGCHNSAELIAEISTACTYKNQECRLTIHYENGFSITTEPQEGAFPKTIIQSPYEKLKMSSDDGIRMLYLDFGGKDGEIQLDLHSCPKPIVFIIHSFLSAKITRLGLVA | –

These are yes or no findings as the source states them, for the method shown. Binding seen in cells or lysates may run through a third protein. A yes stands for co-enrichment or nearness to the bait. Other partners may have been found. For part of these data: A no says only that the protein was not detected with the bait. For part of these data: Tags and fused reporters may be left off the sequences shown.
